# Reference: the supplement of paper PMC12889115
# The list shows a part of the results. These are raw signals, not scaled to a control.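 First-pass screen: polymyxin B was added at a level that permeabilizes the Salmonella outer membrane while sparing the inner membrane. DMSO wells, with and without polymyxin B, defined maximum growth. Because plates differed from one another, each plate's data were ranked separately and the compounds with the lowest OD600 were carried forward as hits.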
# Tested on: Salmonella enterica serovar Typhimurium SL1344
# Experiment: bacterial growth OD600 after 18 h with compound and polymyxin B; higher = more bacterial growth (less inhibition)
# Details: 50 µM, Mueller-Hinton broth
smiles,measurement,setting,value
COC(=O)c1c(S(=O)(=O)Nc2ccc(C)cc2)sc2c1CCN(C(=O)CC1CCCC1)C2,bacterial growth OD600,polymyxin B 0.75 µg/mL,0.005
C=CCNC(=O)N1CCCC1C(=O)Nc1ccccc1-c1ccc(OC)cc1 (stereo unspecified),bacterial growth OD600,polymyxin B 0.75 µg/mL,0.823
CN(Cc1cccc(-n2cccn2)c1)Cc1nc(-c2cccc(Cl)c2)no1,bacterial growth OD600,polymyxin B 1 µg/mL,0.807
Cc1cccnc1-c1cccc2c1OC(CNC(=O)CCC(C)C)C2 (stereo unspecified),bacterial growth OD600,polymyxin B 0.75 µg/mL,0.824
CCOC(=O)C1(Cc2ccc(Cl)cc2)CCN(C(=O)c2cccc(OC)c2)CC1,bacterial growth OD600,polymyxin B 1 µg/mL,0.125
COC(=O)c1cccc(C(=O)N2CCc3onc(-c4ccccc4F)c3C2)c1,bacterial growth OD600,polymyxin B 0.75 µg/mL,0.447
Cc1csc(C(C)N(C)C(=O)c2csc3nc(-c4ccccc4)cn23)n1 (stereo unspecified),bacterial growth OD600,polymyxin B 1 µg/mL,0.903
CC#CCN1C(=O)NC(CCc2ccccc2)(C2CCN(C/C=C/C(C)C)CC2)C1=O (stereo unspecified),bacterial growth OD600,polymyxin B 0.75 µg/mL,0.851
O=C(Cc1ccc2c(c1)OCO2)N(Cc1ccncc1)Cc1cccc(OCCc2ccc(F)cc2)c1,bacterial growth OD600,polymyxin B 0.75 µg/mL,-0.004
COc1cc(CN2CCN(Cc3ccc(C)cc3)C(CCO)C2)ccc1F (stereo unspecified),bacterial growth OD600,polymyxin B 1 µg/mL,0.81
CCNC(=O)N1CCCC1C(=O)Nc1cccc(-n2cccn2)c1 (stereo unspecified),bacterial growth OD600,polymyxin B 1 µg/mL,0.913
CN(C)C(=O)CCC(=O)N1CCc2onc(-c3ccc(Cl)cc3)c2C1,bacterial growth OD600,polymyxin B 0.75 µg/mL,0.822
COc1ccc(NC(=O)CCC2CCCN(C(=O)CCn3cncn3)C2)cc1Cl (stereo unspecified),bacterial growth OD600,polymyxin B 1 µg/mL,0.99
Cc1nc(CCNC(=O)c2coc(Cn3cnc4ccccc43)n2)sc1C,bacterial growth OD600,polymyxin B 1 µg/mL,1.27
O=C(c1nccc2ccccc12)N1CCCC(Nc2ccccc2)C1 (stereo unspecified),bacterial growth OD600,polymyxin B 1 µg/mL,1.31
CCOc1ccccc1CN1CCC(n2nccc2NC(=O)c2ccccc2)CC1,bacterial growth OD600,polymyxin B 1 µg/mL,0.807
COc1ccc(NC(=O)CCC2CCCN(C(=O)CCc3scnc3C)C2)cc1Cl (stereo unspecified),bacterial growth OD600,polymyxin B 1 µg/mL,0.933
CCN(CC)C1CCN(C(=O)c2csc3nc(-c4ccccc4Cl)cn23)C1 (stereo unspecified),bacterial growth OD600,polymyxin B 1 µg/mL,0.834
CCCn1c(C)c(CC(=O)N2CCC[C@H]2CO)c2c1CC(C)(C)CC2=O,bacterial growth OD600,polymyxin B 0.75 µg/mL,0.824
COc1ccc(CN(Cc2ccncc2)C(=O)c2ccc(-c3cccc(F)c3)cc2)cc1OC1CCCC1,bacterial growth OD600,polymyxin B 0.75 µg/mL,0.024
CC1(C)C[C@@H]2C[C@@](C)(CN2C(=O)c2coc(COc3ccccc3)n2)C1,bacterial growth OD600,polymyxin B 1 µg/mL,0.058

# Molecules shown so far that have two or more sulfur atoms (2):
smiles,measurement,setting,value
COC(=O)c1c(S(=O)(=O)Nc2ccc(C)cc2)sc2c1CCN(C(=O)CC1CCCC1)C2,bacterial growth OD600,polymyxin B 0.75 µg/mL,0.005
Cc1csc(C(C)N(C)C(=O)c2csc3nc(-c4ccccc4)cn23)n1 (stereo unspecified),bacterial growth OD600,polymyxin B 1 µg/mL,0.903
